From paper doi:10.1101/2023.07.20.549453 (bioRxiv, 2023)
These are yes or no findings as the source states them, for the method shown. For part of these data: Binding seen in cells or lysates may run through a third protein. Some results given as binding are weak or reduced against the parent protein; the word gives no strength. For part of these data: Tags and fused reporters may be left off the sequences shown. One block for each binder: values may come before it.

Experiments:
[1] = molecular target: T1, Dlk2 (endogenous, MCF-7 cells) (human (endogenous in MCF-7)) (UniProt Q6UY11); test: co-IP
T1 sequence: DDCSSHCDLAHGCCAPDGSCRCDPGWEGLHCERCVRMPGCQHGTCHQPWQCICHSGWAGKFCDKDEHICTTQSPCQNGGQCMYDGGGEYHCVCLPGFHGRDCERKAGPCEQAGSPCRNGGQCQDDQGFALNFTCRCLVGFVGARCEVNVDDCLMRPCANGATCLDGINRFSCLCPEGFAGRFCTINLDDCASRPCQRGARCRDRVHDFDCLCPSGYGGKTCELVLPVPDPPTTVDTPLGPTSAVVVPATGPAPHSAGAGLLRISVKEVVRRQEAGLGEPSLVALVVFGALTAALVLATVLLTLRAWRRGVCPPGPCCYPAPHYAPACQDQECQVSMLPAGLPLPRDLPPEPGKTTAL

[2] = molecular target: T2, Human Dlk2 with DKK tag, over-expressed in MCF-7 (human) (UniProt Q6UY11); test: co-IP
T2 sequence: T1 sequence

[3] = molecular target: T3, Human Dlk2 full length (human) (UniProt Q6UY11); test: SPR
T3 sequence: T1 sequence

[4] = molecular target: T4, Human Dlk2 extracellular domain (Dlk2EC, residues 1-306) (human) (UniProt Q6UY11); test: SPR
T4 sequence: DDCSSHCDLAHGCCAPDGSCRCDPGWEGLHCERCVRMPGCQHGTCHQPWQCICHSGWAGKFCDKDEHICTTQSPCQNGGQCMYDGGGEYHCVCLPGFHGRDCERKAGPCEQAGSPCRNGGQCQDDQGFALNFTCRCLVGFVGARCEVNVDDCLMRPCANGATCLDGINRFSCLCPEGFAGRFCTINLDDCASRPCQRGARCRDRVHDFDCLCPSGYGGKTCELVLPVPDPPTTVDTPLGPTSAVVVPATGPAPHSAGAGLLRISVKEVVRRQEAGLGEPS

binding [1]: binds
binding [2]: binds
B1: Numb (endogenous, MCF-7 cells) (protein, UniProt P49757 1-651)
chain: MNKLRQSFRRKKDVYVPEASRPHQWQTDEEGVRTGKCSFPVKYLGHVEVDESRGMHICEDAVKRLKAERKFFKGFFGKTGKKAVKAVLWVSADGLRVVDEKTKDLIVDQTIEKVSFCAPDRNFDRAFSYICRDGTTRRWICHCFMAVKDTGERLSHAVGCAFAACLERKQKREKECGVTATFDASRTTFTREGSFRVTTATEQAEREEIMKQMQDAKKAETDKIVVGSSVAPGNTAPSPSSPTSPTSDATTSLEMNNPHAIPRRHAPIEQLARQGSFRGFPALSQKMSPFKRQLSLRINELPSTMQRKTDFPIKNAVPEVEGEAESISSLCSQITNAFSTPEDPFSSAPMTKPVTVVAPQSPTFQANGTDSAFHVLAKPAHTALAPVAMPVRETNPWAHAPDAANKEIAATCSGTEWGQSSGAASPGLFQAGHRRTPSEADRWLEEVSKSVRAQQPQASAAPLQPVLQPPPPTAISQPASPFQGNAFLTSQPVPVGVVPALQPAFVPAQSYPVANGMPYPAPNVPVVGITPSQMVANVFGTAGHPQAAHPHQSPSLVRQQTFPHYEASSATTSPFFKPPAQHLNGSAAFNGVDDGRLASADRHTEVPTGTCPVDPFEAQWAALENKSKQRTNPSPTNPFSSDLQKTFEIEL

binding [3]: binds
B2: Human Numb full-length (protein, UniProt P49757 1-651)
chain: B1 chain

binding [4]: no binding (tested: 20 nM)
B3: Human MTERF (MTERF1) (protein, UniProt Q99551 58-399)
chain: FGVKCHNTDSEPLKNEDLLKNLLTMGVDIDMARKRQPGVFHRMITNEQDLKMFLLSKGASKEVIASIISRYPRAITRTPENLSKRWDLWRKIVTSDLEIVNILERSPESFFRSNNNLNLENNIKFLYSVGLTRKCLCRLLTNAPRTFSNSLDLNKQMVEFLQAAGLSLGHNDPADFVRKIIFKNPFILIQSTKRVKANIEFLRSTFNLNSEELLVLICGPGAEILDLSNDYARRSYANIKEKLFSLGCTEEEVQKFVLSYPDVIFLAEKKFNDKIDCLMEENISISQIIENPRVLDSSISTLKSRIKELVNAGCNLSTLNITLLSWSKKRYEAKLKKLSRFA

binding [4]: no binding (tested: 20 nM)
B4: Human B7-H2-Fc Chimera (Fc fusion, UniProt O75144 19-256)
chain: DTQEKEVRAMVGSDVELSCACPEGSRFDLNDVYVYWQTSESKTVVTYHIPQNSSLENVDSRYRNRALMSPAGMLRGDFSLRLFNVTPQDEQKFHCLVLSQSLGFQEVLSVEVTLHVAANFSVPVVSAPHSPSQDELTFTCTSINGYPRPNVYWINKTDNSLLDQALQNDTVFLNMRGLYDVVSVLRIARTPSVNIGCCIENVLLQQNLTVGSQTGNDIGERDKITENPVSTGEKNAAT

binding [4]: no binding (tested: 20 nM)
B5: Human SNAP43 (SNAPC1) (protein, UniProt Q16533 1-368)
chain: MGTPPGLQTDCEALLSRFQETDSVRFEDFTELWRNMKFGTIFCGRMRNLEKNMFTKEALALAWRYFLPPYTFQIRVGALYLLYGLYNTQLCQPKQKIRVALKDWDEVLKFQQDLVNAQHFDAAYIFRKLRLDRAFHFTAMPKLLSYRMKKKIHRAEVTEEFKDPSDRVMKLITSDVLEEMLNVHDHYQNMKHVISVDKSKPDKALSLIKDDFFDNIKNIVLEHQQWHKDRKNPSLKSKTNDGEEKMEGNSQETERCERAESLAKIKSKAFSVVIQASKSRRHRQVKLDSSDSDSASGQGQVKATRKKEKKERLKPAGRKMSLRNKGNVQNIHKEDKPLSLSMPVITEEEENESLSGTEFTASKKRRKH
